Reference: paper doi:10.1101/714154
These are yes or no findings as the source states them, for the method shown. Some entries that bind do so weakly or less than the wild type.

Biological target: T1, human alpha-N-acetylgalactosaminidase (nagalase) (human) (UniProt P17050)
T1 sequence: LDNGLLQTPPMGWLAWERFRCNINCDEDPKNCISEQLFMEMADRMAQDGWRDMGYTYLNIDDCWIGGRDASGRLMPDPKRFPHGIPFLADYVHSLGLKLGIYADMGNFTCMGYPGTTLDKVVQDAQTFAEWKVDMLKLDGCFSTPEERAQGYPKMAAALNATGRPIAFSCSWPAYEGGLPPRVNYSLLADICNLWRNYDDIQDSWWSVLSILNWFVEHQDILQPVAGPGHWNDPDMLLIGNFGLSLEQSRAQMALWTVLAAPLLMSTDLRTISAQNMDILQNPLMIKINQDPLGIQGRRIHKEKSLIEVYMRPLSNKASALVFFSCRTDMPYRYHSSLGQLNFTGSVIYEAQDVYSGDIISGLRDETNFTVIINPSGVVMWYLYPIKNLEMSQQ
Test: ELISA

B1: vitamin D-binding protein-derived macrophage activating factor (DBP-MAF), purified (protein, UniProt P02774 17-474)
chain: LERGRDYEKNKVCKEFSHLGKEDFTSLSLVLYSRKFPSGTFEQVSQLVKEVVSLTEACCAEGADPDCYDTRTSALSAKSCESNSPFPVHPGTAECCTKEGLERKLCMAALKHQPQEFPTYVEPTNDEICEAFRKDPKEYANQFMWEYSTNYGQAPLSLLVSYTKSYLSMVGSCCTSASPTVCFLKERLQLKHLSLLTTLSNRVCSQYAAYGEKKSRLSNLIKLAQKVPTADLEDVLPLAEDITNILSKCCESASEDCMAKELPEHTVKLCDNLSTKNSKFEDCCQEKTAMDVFVCTYFMPAAQLPELPDVELPTNKDVCDPGNTKVMDKYTFELSRRTHLPEVFLSKVLEPTLKSLGECCDVEDSTTCFNAKGPLLKKELSSFIDKGQELCADYSENTFTEYKKKLAERLKAKLPDATPTELAKLVNKHSDFASNCCSINSPPLYCDSEIDAELKNIL
For B1, the binding was “binds”.
